Binding data for 1 substance are collected here from article PMC4122054.

By UniProt entry, the sequences of proteins in these tests, tags left out.
UniProt Q09472: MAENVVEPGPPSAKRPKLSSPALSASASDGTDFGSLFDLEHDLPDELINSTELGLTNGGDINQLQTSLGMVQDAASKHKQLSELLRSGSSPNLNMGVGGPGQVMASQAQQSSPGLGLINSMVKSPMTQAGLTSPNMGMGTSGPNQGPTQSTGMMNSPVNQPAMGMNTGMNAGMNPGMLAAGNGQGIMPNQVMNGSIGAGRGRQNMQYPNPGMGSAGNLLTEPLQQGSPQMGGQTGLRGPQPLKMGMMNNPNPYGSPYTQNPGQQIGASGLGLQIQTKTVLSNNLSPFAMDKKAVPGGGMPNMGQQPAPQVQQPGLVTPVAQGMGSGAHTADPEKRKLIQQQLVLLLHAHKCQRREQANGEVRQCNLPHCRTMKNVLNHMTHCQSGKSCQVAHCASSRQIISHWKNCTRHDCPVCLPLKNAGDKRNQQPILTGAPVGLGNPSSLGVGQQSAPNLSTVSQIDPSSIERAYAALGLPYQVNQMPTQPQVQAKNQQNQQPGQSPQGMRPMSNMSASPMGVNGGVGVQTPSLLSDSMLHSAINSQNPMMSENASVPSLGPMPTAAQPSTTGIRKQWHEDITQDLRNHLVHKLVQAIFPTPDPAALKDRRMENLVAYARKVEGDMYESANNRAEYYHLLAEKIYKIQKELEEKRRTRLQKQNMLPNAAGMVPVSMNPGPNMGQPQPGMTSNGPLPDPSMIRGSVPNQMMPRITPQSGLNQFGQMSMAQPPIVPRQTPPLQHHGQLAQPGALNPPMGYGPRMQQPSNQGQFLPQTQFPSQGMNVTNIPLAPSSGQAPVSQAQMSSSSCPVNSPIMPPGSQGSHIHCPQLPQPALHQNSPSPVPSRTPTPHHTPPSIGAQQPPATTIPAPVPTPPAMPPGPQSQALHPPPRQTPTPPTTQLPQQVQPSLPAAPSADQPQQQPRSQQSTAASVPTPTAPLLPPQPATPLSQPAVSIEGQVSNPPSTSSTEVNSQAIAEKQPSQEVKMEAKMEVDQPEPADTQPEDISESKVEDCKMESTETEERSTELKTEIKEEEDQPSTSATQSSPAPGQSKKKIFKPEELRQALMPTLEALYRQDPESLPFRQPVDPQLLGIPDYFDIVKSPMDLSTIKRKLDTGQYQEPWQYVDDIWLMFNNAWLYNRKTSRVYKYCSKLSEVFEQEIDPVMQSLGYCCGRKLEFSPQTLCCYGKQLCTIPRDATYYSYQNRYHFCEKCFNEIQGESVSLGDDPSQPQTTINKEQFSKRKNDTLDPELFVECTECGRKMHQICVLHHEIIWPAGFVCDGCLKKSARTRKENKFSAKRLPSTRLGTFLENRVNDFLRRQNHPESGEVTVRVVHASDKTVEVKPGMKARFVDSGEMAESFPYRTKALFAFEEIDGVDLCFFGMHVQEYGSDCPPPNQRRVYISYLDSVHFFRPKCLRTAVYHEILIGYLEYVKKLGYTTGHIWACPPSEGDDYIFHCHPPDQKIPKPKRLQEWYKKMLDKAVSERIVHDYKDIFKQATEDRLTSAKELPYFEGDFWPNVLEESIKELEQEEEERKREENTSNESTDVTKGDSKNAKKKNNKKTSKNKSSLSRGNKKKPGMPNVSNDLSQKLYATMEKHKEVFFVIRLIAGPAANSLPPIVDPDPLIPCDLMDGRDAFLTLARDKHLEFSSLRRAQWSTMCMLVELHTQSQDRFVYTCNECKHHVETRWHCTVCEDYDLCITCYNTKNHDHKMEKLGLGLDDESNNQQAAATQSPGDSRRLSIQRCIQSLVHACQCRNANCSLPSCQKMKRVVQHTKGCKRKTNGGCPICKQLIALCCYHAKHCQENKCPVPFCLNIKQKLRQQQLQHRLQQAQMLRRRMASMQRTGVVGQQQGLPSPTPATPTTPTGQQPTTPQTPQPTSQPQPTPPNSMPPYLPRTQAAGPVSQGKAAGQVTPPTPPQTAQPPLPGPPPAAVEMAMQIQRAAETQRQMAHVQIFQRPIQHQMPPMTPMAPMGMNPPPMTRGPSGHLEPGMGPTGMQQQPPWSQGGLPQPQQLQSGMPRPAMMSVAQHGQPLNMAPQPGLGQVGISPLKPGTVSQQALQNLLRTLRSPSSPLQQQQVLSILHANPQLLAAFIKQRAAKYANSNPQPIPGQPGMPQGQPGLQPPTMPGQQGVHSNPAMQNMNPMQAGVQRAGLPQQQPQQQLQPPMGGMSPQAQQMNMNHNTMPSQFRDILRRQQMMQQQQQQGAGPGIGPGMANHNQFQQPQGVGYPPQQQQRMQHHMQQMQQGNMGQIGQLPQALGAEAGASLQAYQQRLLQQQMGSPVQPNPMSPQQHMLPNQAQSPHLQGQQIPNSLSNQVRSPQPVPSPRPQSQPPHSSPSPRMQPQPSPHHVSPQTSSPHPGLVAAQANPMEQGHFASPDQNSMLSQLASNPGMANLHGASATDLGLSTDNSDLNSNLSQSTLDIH

The target of this experiment is T1, Zinc finger E-box-binding homeobox 1 (human (endogenous in mesenchymal lung tumor cell lines)) (UniProt P37275).
T1 sequence: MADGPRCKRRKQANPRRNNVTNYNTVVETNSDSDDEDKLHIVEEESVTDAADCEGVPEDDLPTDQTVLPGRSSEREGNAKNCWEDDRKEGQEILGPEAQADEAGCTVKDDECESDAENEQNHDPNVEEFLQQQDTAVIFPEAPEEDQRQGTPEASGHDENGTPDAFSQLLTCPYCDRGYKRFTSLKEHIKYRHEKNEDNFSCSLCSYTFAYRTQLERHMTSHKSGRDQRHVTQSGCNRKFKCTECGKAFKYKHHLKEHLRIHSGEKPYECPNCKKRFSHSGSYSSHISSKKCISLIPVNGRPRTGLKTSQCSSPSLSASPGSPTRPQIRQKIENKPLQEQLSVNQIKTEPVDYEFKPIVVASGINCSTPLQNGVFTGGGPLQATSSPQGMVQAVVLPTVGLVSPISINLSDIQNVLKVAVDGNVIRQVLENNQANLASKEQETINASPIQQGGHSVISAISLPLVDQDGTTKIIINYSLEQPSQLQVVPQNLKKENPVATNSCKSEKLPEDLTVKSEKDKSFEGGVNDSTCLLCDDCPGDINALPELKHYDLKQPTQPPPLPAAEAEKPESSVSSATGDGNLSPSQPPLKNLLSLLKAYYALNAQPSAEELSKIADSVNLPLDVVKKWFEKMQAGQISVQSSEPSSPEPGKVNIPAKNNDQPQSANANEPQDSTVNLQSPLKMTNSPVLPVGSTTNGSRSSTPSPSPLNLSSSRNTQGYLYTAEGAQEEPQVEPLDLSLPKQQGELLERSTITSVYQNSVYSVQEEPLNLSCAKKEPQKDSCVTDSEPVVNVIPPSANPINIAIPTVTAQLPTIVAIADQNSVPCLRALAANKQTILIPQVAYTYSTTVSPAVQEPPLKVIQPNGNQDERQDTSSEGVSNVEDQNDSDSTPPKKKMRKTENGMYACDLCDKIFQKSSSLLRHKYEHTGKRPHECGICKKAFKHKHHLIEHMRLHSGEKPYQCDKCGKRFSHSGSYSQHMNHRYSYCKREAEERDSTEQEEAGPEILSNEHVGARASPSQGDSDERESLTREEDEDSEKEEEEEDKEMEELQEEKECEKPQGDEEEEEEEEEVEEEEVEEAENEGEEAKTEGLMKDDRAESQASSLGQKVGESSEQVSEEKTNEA
The experiment is described as follows: co-IP; endogenous proteins; 8 x 10^7 cells per immunoprecipitation lysed in NP-40 buffer (0.2% NP-40, 150 mM NaCl, 20 mM Tris pH 8.0, 10 mM EDTA); 2 ug ZEB1 or control antibody with protein-G sepharose overnight at 4°C; four washes in lysis buffer; Western blot. For orientation: Immunoblotting shows a protein as a band on a membrane.

No constants are given. Whether binding was seen depends on the method and setting. In cells and extracts the contact can be indirect. Some entries that bind do so weakly or less than the wild type.

Take p300 (from UniProt Q09472 1-2414): the binding result was “binds”.
